Data taken from the supplement of paper PMC6411743.
± gives the standard deviation of the averaged measurements. The list shows a part of the results.

Chains of the proteins cited; added tags and fusions are not shown. Lines headed by an entry give the natural chain unless they say otherwise; changes in a name come on top.
UniProt P99999: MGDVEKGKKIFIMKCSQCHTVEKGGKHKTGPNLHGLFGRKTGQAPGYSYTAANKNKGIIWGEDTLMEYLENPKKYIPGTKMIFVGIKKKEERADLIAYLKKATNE
UniProt P31483: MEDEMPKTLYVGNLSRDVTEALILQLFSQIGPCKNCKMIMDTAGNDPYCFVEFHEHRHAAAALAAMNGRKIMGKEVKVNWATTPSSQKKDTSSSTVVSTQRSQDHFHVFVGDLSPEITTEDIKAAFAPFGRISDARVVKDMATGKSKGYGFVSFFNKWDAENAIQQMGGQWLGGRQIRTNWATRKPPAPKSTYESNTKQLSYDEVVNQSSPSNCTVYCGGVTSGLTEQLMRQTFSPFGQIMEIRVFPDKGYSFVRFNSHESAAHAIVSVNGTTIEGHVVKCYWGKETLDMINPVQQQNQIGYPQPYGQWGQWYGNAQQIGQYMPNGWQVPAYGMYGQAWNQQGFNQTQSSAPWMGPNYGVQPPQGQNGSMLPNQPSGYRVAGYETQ
UniProt P46976: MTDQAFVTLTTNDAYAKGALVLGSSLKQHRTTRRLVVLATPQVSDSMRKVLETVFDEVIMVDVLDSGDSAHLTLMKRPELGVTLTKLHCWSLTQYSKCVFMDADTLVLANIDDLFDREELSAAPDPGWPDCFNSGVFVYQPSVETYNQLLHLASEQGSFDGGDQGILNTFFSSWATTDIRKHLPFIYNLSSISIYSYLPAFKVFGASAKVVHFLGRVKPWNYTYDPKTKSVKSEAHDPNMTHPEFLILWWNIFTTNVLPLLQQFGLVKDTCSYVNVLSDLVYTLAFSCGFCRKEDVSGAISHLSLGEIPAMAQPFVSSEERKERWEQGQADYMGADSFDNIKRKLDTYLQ
UniProt Q9H2H8: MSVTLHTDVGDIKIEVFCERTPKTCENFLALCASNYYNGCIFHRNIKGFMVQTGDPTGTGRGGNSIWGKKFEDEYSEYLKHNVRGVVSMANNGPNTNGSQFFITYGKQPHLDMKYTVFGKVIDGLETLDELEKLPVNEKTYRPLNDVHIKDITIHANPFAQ
UniProt Q6UXN9, whole entry: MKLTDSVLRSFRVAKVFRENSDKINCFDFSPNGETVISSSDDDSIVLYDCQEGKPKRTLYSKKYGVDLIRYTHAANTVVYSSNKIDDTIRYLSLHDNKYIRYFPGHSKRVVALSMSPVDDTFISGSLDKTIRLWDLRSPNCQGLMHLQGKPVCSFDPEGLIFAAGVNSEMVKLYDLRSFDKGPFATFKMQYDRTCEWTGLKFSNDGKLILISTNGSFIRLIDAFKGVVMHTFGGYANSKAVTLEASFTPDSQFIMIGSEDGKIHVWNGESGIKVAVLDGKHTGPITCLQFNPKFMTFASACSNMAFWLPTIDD
UniProt Q01844: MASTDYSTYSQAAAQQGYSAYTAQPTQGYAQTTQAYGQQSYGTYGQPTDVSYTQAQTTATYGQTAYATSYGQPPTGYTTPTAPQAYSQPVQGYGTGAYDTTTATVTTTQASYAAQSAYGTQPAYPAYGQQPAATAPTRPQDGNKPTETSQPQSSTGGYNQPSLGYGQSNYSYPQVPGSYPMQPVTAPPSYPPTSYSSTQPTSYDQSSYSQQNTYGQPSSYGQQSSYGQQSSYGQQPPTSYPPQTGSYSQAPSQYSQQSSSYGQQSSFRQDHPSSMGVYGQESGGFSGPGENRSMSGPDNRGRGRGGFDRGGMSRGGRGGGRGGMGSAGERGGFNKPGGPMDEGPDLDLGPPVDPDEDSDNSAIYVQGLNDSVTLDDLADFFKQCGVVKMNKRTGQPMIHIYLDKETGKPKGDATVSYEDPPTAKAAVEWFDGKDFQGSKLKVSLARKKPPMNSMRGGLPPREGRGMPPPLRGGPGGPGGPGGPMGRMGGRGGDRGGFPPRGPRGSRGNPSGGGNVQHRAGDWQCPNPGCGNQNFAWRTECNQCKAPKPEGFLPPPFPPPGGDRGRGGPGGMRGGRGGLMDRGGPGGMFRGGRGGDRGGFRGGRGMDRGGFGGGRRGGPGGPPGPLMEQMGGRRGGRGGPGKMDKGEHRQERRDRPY
UniProt P55196: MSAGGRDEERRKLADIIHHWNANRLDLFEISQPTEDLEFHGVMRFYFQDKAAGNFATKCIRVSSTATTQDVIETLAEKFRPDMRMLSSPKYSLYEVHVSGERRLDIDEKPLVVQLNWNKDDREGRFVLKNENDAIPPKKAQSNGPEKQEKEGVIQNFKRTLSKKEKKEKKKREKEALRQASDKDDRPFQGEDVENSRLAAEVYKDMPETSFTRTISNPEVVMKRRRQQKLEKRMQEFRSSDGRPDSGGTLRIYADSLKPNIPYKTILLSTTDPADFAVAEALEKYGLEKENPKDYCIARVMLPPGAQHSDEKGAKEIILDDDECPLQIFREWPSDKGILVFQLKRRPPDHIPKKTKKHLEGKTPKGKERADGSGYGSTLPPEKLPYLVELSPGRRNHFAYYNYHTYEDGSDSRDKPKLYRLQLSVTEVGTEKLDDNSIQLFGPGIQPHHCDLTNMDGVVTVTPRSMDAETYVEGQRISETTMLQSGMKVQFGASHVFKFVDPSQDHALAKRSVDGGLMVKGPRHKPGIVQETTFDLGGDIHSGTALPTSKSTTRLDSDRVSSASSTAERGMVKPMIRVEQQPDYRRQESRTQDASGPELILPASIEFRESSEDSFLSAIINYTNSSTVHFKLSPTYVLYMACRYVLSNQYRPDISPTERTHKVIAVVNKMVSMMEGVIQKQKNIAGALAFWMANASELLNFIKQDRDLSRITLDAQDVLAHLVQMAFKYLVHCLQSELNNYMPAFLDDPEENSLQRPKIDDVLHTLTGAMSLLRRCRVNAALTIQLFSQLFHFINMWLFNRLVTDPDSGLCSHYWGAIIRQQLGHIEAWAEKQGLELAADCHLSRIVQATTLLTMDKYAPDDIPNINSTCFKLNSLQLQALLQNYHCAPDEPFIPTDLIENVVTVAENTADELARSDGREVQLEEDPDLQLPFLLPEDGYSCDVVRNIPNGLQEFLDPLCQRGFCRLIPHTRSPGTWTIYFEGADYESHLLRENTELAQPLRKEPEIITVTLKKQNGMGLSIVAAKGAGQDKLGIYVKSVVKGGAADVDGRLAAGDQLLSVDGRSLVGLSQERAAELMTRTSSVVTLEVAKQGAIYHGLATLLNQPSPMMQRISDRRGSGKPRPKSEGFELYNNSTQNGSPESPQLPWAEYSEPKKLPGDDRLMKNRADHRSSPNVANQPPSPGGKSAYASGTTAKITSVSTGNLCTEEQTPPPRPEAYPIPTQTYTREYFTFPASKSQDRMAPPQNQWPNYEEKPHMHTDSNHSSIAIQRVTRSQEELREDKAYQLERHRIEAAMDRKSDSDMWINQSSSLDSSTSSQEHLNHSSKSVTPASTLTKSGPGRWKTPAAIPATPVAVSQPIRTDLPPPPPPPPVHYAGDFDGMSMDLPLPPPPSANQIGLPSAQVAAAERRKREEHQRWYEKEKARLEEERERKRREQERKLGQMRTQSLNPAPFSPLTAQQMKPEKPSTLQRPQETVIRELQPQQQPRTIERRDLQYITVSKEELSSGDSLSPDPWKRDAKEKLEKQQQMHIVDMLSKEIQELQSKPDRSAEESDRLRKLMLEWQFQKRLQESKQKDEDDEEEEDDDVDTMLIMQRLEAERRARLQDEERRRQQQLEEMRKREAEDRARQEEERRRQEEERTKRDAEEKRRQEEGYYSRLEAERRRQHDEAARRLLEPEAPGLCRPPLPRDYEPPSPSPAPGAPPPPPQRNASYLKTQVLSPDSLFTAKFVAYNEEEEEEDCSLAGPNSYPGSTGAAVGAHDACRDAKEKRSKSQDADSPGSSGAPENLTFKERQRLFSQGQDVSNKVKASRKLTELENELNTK
UniProt P55854, whole entry: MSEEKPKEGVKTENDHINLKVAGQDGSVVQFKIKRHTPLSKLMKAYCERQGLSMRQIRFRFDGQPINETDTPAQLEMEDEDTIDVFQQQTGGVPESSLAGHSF
UniProt Q96AA3: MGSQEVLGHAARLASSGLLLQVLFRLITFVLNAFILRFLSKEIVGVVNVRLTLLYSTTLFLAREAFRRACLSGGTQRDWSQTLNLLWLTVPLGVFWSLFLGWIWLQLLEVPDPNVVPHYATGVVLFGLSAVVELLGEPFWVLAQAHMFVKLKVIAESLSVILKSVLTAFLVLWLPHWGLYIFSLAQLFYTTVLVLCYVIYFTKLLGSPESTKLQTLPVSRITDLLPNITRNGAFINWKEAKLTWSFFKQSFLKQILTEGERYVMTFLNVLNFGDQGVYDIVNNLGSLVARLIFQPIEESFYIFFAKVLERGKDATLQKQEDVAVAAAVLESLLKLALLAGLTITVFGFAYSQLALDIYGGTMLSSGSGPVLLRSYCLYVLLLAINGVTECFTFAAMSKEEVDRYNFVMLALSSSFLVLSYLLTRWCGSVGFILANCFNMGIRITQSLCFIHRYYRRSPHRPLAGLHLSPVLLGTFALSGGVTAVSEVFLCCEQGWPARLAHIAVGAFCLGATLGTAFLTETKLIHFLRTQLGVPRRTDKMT
UniProt Q9UPW0: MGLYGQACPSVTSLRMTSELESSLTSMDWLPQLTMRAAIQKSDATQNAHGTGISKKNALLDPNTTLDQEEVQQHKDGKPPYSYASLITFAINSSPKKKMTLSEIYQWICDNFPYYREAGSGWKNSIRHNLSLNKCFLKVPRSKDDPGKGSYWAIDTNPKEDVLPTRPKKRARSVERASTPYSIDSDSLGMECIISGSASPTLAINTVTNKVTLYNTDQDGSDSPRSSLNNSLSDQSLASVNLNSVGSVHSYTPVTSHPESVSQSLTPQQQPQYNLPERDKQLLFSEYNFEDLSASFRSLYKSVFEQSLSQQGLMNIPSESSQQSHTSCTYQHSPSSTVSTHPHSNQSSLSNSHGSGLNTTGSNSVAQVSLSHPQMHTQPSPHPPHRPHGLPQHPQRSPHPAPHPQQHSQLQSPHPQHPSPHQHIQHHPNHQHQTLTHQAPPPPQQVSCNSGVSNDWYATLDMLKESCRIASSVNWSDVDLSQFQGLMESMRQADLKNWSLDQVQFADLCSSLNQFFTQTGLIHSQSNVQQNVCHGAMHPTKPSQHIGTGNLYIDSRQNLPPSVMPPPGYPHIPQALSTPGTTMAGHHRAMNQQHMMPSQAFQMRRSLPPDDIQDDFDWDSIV
UniProt P22415: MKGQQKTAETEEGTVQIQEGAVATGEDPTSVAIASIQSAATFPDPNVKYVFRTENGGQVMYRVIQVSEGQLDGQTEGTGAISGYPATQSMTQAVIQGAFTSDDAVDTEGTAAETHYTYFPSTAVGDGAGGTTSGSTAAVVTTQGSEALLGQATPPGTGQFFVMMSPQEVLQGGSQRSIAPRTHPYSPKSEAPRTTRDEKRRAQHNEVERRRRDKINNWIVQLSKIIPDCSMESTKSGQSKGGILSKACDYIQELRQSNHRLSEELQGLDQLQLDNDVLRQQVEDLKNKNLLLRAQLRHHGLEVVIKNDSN
UniProt Q9Y6E2: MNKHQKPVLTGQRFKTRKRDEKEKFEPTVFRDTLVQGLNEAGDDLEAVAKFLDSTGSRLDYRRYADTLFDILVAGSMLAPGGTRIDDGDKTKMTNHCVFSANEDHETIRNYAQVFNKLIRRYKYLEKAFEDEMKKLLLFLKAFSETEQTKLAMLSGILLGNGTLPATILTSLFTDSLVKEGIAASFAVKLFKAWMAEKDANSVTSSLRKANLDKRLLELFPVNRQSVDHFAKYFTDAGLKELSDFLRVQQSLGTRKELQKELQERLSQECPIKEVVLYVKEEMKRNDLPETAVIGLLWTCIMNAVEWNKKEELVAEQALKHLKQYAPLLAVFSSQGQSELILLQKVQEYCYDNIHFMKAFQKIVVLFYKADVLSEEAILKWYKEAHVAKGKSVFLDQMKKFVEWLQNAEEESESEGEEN
UniProt Q15369, whole entry: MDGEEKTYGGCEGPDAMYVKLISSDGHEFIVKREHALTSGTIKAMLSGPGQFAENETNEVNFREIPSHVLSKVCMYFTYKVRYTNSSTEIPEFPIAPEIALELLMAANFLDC
UniProt Q96FF9: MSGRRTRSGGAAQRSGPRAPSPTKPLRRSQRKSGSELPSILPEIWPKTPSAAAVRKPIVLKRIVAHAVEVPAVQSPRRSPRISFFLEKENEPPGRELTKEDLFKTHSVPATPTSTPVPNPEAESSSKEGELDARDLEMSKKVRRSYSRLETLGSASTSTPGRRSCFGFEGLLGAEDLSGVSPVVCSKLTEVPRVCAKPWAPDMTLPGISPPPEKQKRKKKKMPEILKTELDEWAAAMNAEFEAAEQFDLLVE
UniProt P41732: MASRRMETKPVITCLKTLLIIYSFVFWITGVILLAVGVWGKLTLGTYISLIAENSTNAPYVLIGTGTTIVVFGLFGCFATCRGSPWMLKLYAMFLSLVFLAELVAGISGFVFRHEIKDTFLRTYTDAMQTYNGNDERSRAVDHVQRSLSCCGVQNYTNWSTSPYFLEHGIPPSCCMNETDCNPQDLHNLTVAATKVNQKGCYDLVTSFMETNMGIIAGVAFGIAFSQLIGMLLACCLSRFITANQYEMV

Compound: Nc1nc2c(ncn2[C@@H]2O[C@H](COP(=O)(O)OP(=O)(O)OP(=O)(O)O)[C@@H](O)[C@H]2O)c(=O)[nH]1 [guanosine triphosphate]
Assay: NP40-soluble protein abundance relative to vehicle (solubility fold change) (ratio); higher = more soluble protein in presence of GTP
How it was run: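 In three independent experiments, Jurkat crude lysate made by Dounce homogenisation was treated for 10 min at room temperature and then 3 min at 37 °C with eight concentrations ranging from 0.1 to 10 mM. It was then solubilised with 0.8% NP40 plus benzonase for 60 min at 4 °C and ultracentrifuged. The supernatant was TMT-labelled for LC-MS/MS, and each value is the fold change against the detergent-processed vehicle for the same replicate, using vsn-normalised intensities.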

| Target | NP40-soluble protein abundance (concentration: 0.1mM) | NP40-soluble protein abundance (concentration: 0.5mM) | NP40-soluble protein abundance (concentration: 1mM) | NP40-soluble protein abundance (concentration: 2mM) | NP40-soluble protein abundance (concentration: 4mM) | NP40-soluble protein abundance (concentration: 6mM) | NP40-soluble protein abundance (concentration: 8mM) | NP40-soluble protein abundance (concentration: 10mM) |
| --- | --- | --- | --- | --- | --- | --- | --- | --- |
| C9JFR7 and related entries (UniProt P99999) | 0.84 ± 0.12 | 0.815 ± 0.17 | 0.86 ± 0.17 | 0.9 ± 0.18 | 0.851 ± 0.24 | 0.863 ± 0.14 | 0.859 ± 0.12 | 0.949 ± 0.14 |
| C9JTN7 and related entries (UniProt P31483) | 0.993 ± 0.029 | 1 ± 0.021 | 0.983 ± 0.022 | 0.904 ± 0.021 | 0.899 ± 0.053 | 0.918 ± 0.064 | 0.9088 ± 0.0039 | 0.879 ± 0.036 |
| B1AL69 and related entries (UniProt Q7L3B6) | 0.954 ± 0.052 | 0.907 ± 0.13 | 1.05 ± 0.069 | 1.02 ± 0.045 | 0.95 ± 0.066 | 0.998 ± 0.049 | 0.984 ± 0.025 | 0.983 ± 0.086 |
| D6RAM1 and related entries (UniProt P31943) | 0.974 ± 0.023 | 0.987 ± 0.012 | 0.955 ± 0.014 | 0.96 ± 0.018 | 0.965 ± 0.024 | 0.972 ± 0.019 | 0.951 ± 0.026 | 0.948 ± 0.035 |
| C9JQ42 and related entries (UniProt P46976) | 0.913 ± 0.14 | 0.9585 ± 0.0056 | 0.99 ± 0.1 | 1 ± 0.17 | 0.993 ± 0.31 | 0.927 ± 0.22 | 0.917 ± 0.22 | 0.914 ± 0.27 |
| B8ZZ77 and related entries (UniProt Q9H2H8) | 0.966 ± 0.1 | 0.96 ± 0.098 | 0.927 ± 0.1 | 0.913 ± 0.11 | 0.934 ± 0.17 | 0.913 ± 0.12 | 0.937 ± 0.14 | 0.91 ± 0.088 |
| B5MCU0 (UniProt Q9Y2K5) | 1.02 ± 0.041 | 1 ± 0.0098 | 1.05 ± 0.1 | 1.02 ± 0.017 | 0.862 ± 0.097 | 0.941 ± 0.12 | 1.05 ± 0.032 | 0.9186 ± 0.0046 |
| C9JBU3 and related entries (UniProt Q6UXN9) | 1.08 ± 0.088 | 1.09 ± 0.13 | 0.934 ± 0.067 | 1 ± 0.19 | 0.968 ± 0.13 | 0.952 ± 0.099 | 0.887 ± 0.0099 | 0.883 ± 0.1 |
| B0QYK0 and related entries (UniProt Q01844) | 0.905 ± 0.05 | 0.928 ± 0.038 | 0.967 ± 0.022 | 0.937 ± 0.075 | 0.905 ± 0.049 | 0.969 ± 0.083 | 0.987 ± 0.034 | 0.979 ± 0.056 |
| A8MQ02 and related entries (UniProt P55196) | 1.15 ± 0.16 | 0.987 ± 0.079 | 1 ± 0.038 | 1.05 ± 0.14 | 1.18 ± 0.34 | 1.18 ± 0.21 | 1.16 ± 0.14 | 1.13 ± 0.078 |
| A8MU27 and related entries (UniProt P55854) | 0.988 ± 0.035 | 0.957 ± 0.023 | 1.1 ± 0.06 | 0.983 ± 0.015 | 0.987 ± 0.024 | 1.07 ± 0.032 | 1.09 ± 0.053 | 1.12 ± 0.057 |
| B5MDE0 and related entries (UniProt Q96AA3) | 1.1 ± 0.038 | 1.03 ± 0.062 | 0.969 ± 0.032 | 0.949 ± 0.071 | 0.944 ± 0.046 | 0.907 ± 0.065 | 0.879 ± 0.025 | 0.853 ± 0.054 |
| C9JVP0 and related entries (UniProt Q9UPW0) | 1.01 ± 0.026 | 1.05 ± 0.17 | 1.14 ± 0.019 | 1.08 ± 0.13 | 1.13 ± 0.1 | 1.05 ± 0.17 | 1.06 ± 0.1 | 1.13 ± 0.063 |
| C9J7K9 and related entries (UniProt O15162) | 1.04 ± 0.056 | 0.996 ± 0.018 | 0.913 ± 0.029 | 0.879 ± 0.035 | 0.895 ± 0.083 | 0.923 ± 0.094 | 0.8475 ± 0.0078 | 0.867 ± 0.18 |
| B1AQP1 and related entries (UniProt P22415) | 0.951 ± 0.037 | 0.924 ± 0.066 | 0.977 ± 0.075 | 0.947 ± 0.12 | 0.933 ± 0.12 | 0.934 ± 0.099 | 0.993 ± 0.084 | 0.995 ± 0.067 |
| B2WTI3 and related entries (UniProt Q6NYC1) | 0.973 ± 0.058 | 0.983 ± 0.064 | 0.99 ± 0.069 | 0.94 ± 0.061 | 0.978 ± 0.072 | 0.887 ± 0.038 | 0.964 ± 0.078 | 0.991 ± 0.1 |
| B4E0Y9 and related entries (UniProt Q9P289) | 0.959 ± 0.021 | 0.959 ± 0.021 | 0.953 ± 0.052 | 0.937 ± 0.074 | 0.931 ± 0.046 | 0.946 ± 0.028 | 0.95 ± 0.033 | 0.942 ± 0.071 |
| B5MCH7 and related entries (UniProt Q9Y6E2) | 0.967 ± 0.016 | 0.939 ± 0.033 | 0.928 ± 0.022 | 0.88 ± 0.032 | 0.871 ± 0.051 | 0.864 ± 0.048 | 0.863 ± 0.059 | 0.839 ± 0.059 |
| E5RJI7 and related entries (UniProt Q9BYD1) | 1.11 ± 0.21 | 1.16 ± 0.13 | 1.31 ± 0.29 | 1.34 ± 0.32 | 1.47 ± 0.44 | 1.35 ± 0.31 | 1.43 ± 0.37 | 1.31 ± 0.32 |
| E5RHG8 and related entries (UniProt Q15369) | 0.893 ± 0.015 | 0.912 ± 0.017 | 0.927 ± 0.017 | 0.91 ± 0.017 | 0.918 ± 0.031 | 0.934 ± 0.019 | 0.903 ± 0.02 | 0.906 ± 0.035 |
| C9J0K6 and related entries (UniProt P30626) | 0.91 ± 0.1 | 0.85 ± 0.056 | 1.01 ± 0.12 | 1.01 ± 0.083 | 0.995 ± 0.13 | 0.956 ± 0.077 | 0.91 ± 0.11 | 1.05 ± 0.17 |
| B5MBX0 and related entries (UniProt Q96FF9) | 0.881 ± 0.081 | 0.995 ± 0.11 | 1.1 ± 0.078 | 1.09 ± 0.19 | 1.04 ± 0.13 | 1.06 ± 0.17 | 1.06 ± 0.038 | 1.09 ± 0.11 |
| A6NMN0 and related entries (UniProt P46020) | 1.04 ± 0.061 | 1.03 ± 0.038 | 1.07 ± 0.048 | 1.07 ± 0.043 | 1.1 ± 0.068 | 1.1 ± 0.057 | 1.16 ± 0.12 | 1.05 ± 0.14 |
| B7ZBM3 and related entries (UniProt Q8IVH2) | 0.848 ± 0.1 | 0.821 ± 0.035 | 0.984 ± 0.18 | 1.01 ± 0.21 | 0.941 ± 0.21 | 1.03 ± 0.17 | 0.926 ± 0.1 | 1.09 ± 0.12 |
| B4DJV2 and related entries (UniProt O75390) | 0.981 ± 0.017 | 0.975 ± 0.015 | 0.911 ± 0.027 | 0.881 ± 0.0095 | 0.886 ± 0.019 | 0.863 ± 0.015 | 0.845 ± 0.036 | 0.827 ± 0.045 |
| B4DDG0 and related entries (UniProt P41732+B4E171+B4DDG0) | 0.962 ± 0.061 | 0.871 ± 0.08 | 0.913 ± 0.064 | 0.885 ± 0.075 | 0.925 ± 0.042 | 0.92 ± 0.087 | 0.85 ± 0.055 | 0.921 ± 0.093 |

Reformatted: results already given
Target	NP40-soluble protein abundance (concentration: 0.1mM)	NP40-soluble protein abundance (concentration: 0.5mM)	NP40-soluble protein abundance (concentration: 1mM)	NP40-soluble protein abundance (concentration: 2mM)	NP40-soluble protein abundance (concentration: 4mM)	NP40-soluble protein abundance (concentration: 6mM)	NP40-soluble protein abundance (concentration: 8mM)	NP40-soluble protein abundance (concentration: 10mM)
B5MDE0 and related entries (UniProt Q96AA3)	1.1 ± 0.038	1.03 ± 0.062	0.969 ± 0.032	0.949 ± 0.071	0.944 ± 0.046	0.907 ± 0.065	0.879 ± 0.025	0.853 ± 0.054
C9JVP0 and related entries (UniProt Q9UPW0)	1.01 ± 0.026	1.05 ± 0.17	1.14 ± 0.019	1.08 ± 0.13	1.13 ± 0.1	1.05 ± 0.17	1.06 ± 0.1	1.13 ± 0.063
